# From patent US7303758B2 (Cordis Corporation, priority 2004, dated 2007)
# At least one structure is not confirmed: it was looked up by name or label, or the drawing left a doubt.
# Tests used:
# [1] = test system: porcine model, neointimal hyperplasia; assay: Animal studies with rapamycin-coated stents, porcine; format: in vivo; details: porcine and rabbit models, nonerodible polymeric stent coating, 35-430 ug/5-18 mm coronary stent, maximal at about twenty-eight to thirty days
# [2] = test system: monocyte chemotactic protein (MCP-1); assay: Cytokine levels in vascular tissue after delivery from a stent; format: in vivo; details: delivered from a stent
structure (smiles),measurement,setting,value
"CO[C@H]1C[C@@H]2CC[C@@H](C)[C@@](O)(O2)C(=O)C(=O)N2CCCC[C@H]2C(=O)O[C@H]([C@H](C)C[C@@H]2CC[C@@H](O)[C@H](OC)C2)CC(=O)[C@H](C)/C=C(\C)[C@@H](O)[C@@H](OC)C(=O)[C@H](C)C[C@H](C)/C=C/C=C/C=C/1C [Rapamycin, rapamycin]",peak reduction in neointimal hyperplasia,[1],fifty to fifty-five
same,monocyte chemotactic protein (MCP-1) levels in the vascular wall,[2],highly effective in reducing
